System: 4T1 breast cancer cells
Assay: PI103-SNPs internalization assay
Assay type: cell-based, murine

## Oc1cccc(-c2nc(N3CCOCC3)c3oc4ncccc4c3n2)c1 [PI103]
4 hours
  intracellular concentration of PI103: higher in the cells treated with the free drug than in SNP-PI103
18 hours
  intracellular concentration of PI103: only traces of the drug were detected

Source: patent publication US10300143B2, “Compositions for treating cancer and methods for making the same” (THE BRIGHAM AND WOMEN'S HOSPITAL, INC., priority 2012, dated 2019)
